The campaign covered roughly 340,000 compounds. About 170 (0.05%) were called active. The inconclusive results got no clear call from the source; some entries with a clear call stand among them for comparison. The call rests on the fitted dose curve; in most records, active means well fitted inhibition curve with a large enough effect in the signal ratio, with a control signal flat (not every such curve was filed as active); inconclusive means small, poorly fitted or top-dose-only effect, or effect the other way, or a change in a side signal; inactive means flat fitted curve, though single readings scatter; the % refers to the signal ratio. Where the call is inconclusive, the potency comes from a doubtful curve fit.
Experiment: qHTS Assay to Find Inhibitors of Chronic Active B-Cell Receptor Signaling;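 on activity change, negative = inhibition: plate controls were basal doxycycline-induced cells for no effect and cells given 10 µM MG132 for full effect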
Settings: ABC-DLBCL IkBa-CBG/CBR reporter, luminescence ratio (green luciferase fused to IkBa over red control in TMD8 lymphoma cells), 4 h; activity change, negative = inhibition: at 46.1 µM (top of the series) unless noted
In short: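 Cell line TMD8 (human ABC DLBCL), stably expressing tet-inducible CBG68-IkBa fusion and CBR; IMDM/0.5% FBS; cpd up to 46 uM; dox induction, 4 h, 37C/5% CO2; dual luminescence; green/red ratio; MG132 control.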
Potency means the concentration at half of the fitted maximal effect.

SMILES | activity change, negative = inhibition | Potency
COc1cccc(CC(NC(C)=O)C(=O)NC2CCN(C(=O)c3ccc(Cl)cc3)CC2)c1OC (configuration not stated) | inactive | 
O=C(O)c1ccc(S(=O)(=O)N2CCCC2)cc1 | inconclusive: 0.0644% | 
COc1ccc(/C=C/C(=O)OCC(=O)c2ccc(S(=O)(=O)N3CCCCC3)cc2)cc1OC | inactive | 
CCOC(=O)C1C(=O)OC(C)(C)C1C(C)C(=O)c1ccccc1 (configuration not stated) | inconclusive: -0.571% | 
Cc1onc(-c2ccccc2Cl)c1C(=O)N(C)C1CCCCC1 | inactive | 
Cc1ccc(NC(=O)c2ccc3c(=O)n4c(nc3c2)CCCCC4)nc1 | inconclusive: 9.63% | 
COc1cc(OC)c2c(-c3cccc(-c4ccc(CO)cc4)c3)cc(=O)oc2c1 |  | inconclusive: 18.4 µM [falling, partial curve]
CN1/C(=C\C=[N+](C)c2ccccc2)C(C)(C)c2ccccc21 | inactive | 
Cc1ccc(NC(=O)c2cc(N3C(=O)CCC3=O)ccc2N2CCOCC2)cc1 | inactive | 
Cc1cccc(Nc2nnc(SCC(=O)Nc3cccnc3Cl)s2)c1 | inconclusive: -8.82% | 
Fc1ccccc1COc1cccc(/C=N/n2cnnc2)c1 | inconclusive: 4.63% | 
Cc1sc(NC(=S)NC(=O)c2ccco2)c(C(N)=O)c1C | inconclusive: 11.3% | 
Cc1ccc(-c2cc3nc(-c4ccccc4)cc(N4CCC5(CC4)OCCO5)n3n2)cc1 | inactive | 
C#CCOCCOCCOCCNc1nc(N2CCN(C(=O)CCCCCCCCCCNC(=O)[C@H](CCCCN)n3cc(CCCC(=O)O)nn3)CC2)nc(N2CCN(C(=O)CCCCCCCCCCNC(=O)[C@H](CCCN=C(N)N)n3cc(C[C@@H](C)CC)nn3)CC2)n1 | inconclusive: -8.13% | 
Cc1nc(SCc2ccccc2)n[nH]1 | inconclusive: -32.6% | 
Cc1noc(C)c1C(=O)NNc1cc(Cl)ccc1Cl | inconclusive: 8.96% | 
O=C(CN(C(=O)CNC(=O)c1cccs1)c1ccc(F)cc1)NC1CCCCC1 |  | inconclusive: 35.5 µM [falling, single point]
COc1ccc(CC(NC(C)=O)C(=O)N2CCN(C(=O)Nc3ccc(Cl)cc3)CC2)cc1OC (configuration not stated) | inconclusive: 6.62% | 
N#Cc1c(NC(=O)CSc2nnc(-c3ccccc3O)n2-c2ccccc2)sc2c1CCCC2 | inconclusive: -0.393% | 
COCCCN1C(=O)C2C(C(=O)Nc3cc(C)cc(C)c3)C3C=CC2(O3)C1C(=O)NC1CCCCC1 (configuration not stated) | inactive | 
Fc1cccc(-c2cc3nc4c(c(NCc5ccco5)n3n2)CCCC4)c1 |  | inconclusive: 22.4 µM [falling, partial curve]
CCOC(=O)C1=C(COC(=O)/C=C/c2cc(OC)c(OC)c(OC)c2)NC(=O)NC1C (configuration not stated) | inconclusive: 10.3% | 

2 entries drawn at random from those above, as already listed:
SMILES | activity change, negative = inhibition | Potency
Cc1noc(C)c1C(=O)NNc1cc(Cl)ccc1Cl | inconclusive: 8.96% | 
Cc1sc(NC(=S)NC(=O)c2ccco2)c(C(N)=O)c1C | inconclusive: 11.3% | 
